Results are given in words; binding and its absence hold for the method and conditions named. For some of these results: Binding can be weak; no strength is given. For some of these results: Sequences can lack the tags named with a protein. For some of these results: In cells and extracts the contact can be indirect.
Assays:
[1] = target: T1, GST-vdUTPase_(201–280) (herpes simplex virus 1, strain F) (UniProt P10234); assay: pull-down; purified GST, GST-vdUTPase_(201–280) or GST-vdUTPase_(281–371) immobilised on glutathione-sepharose resin, purified SE-piUL49 or SE-piUL49R83L in solution, 1 h at 4 °C, washed with 0.5% NP-40 buffer; immunoblot; both purified
T1 sequence: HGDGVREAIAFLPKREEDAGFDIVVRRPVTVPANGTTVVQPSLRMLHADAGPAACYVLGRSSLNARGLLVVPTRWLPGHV

[2] = target: T2, GST-vdUTPase_(281–371) (herpes simplex virus 1, strain F) (UniProt P10234); assay: as above
T2 sequence: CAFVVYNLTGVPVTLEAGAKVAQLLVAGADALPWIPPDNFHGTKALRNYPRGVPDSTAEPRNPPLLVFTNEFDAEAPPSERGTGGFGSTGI

[3] = target: T1, GST-vdUTPase_(201–280) (herpes simplex virus 1, strain F); assay: pull-down; purified GST proteins immobilised on glutathione-sepharose resin, lysate of HEK293FT cells transfected with pFLAG-iUL49, 1 h at 4 °C, 0.5% NP-40 buffer; anti-Flag immunoblot; only the target purified
[4] = target: T2, GST-vdUTPase_(281–371) (herpes simplex virus 1, strain F); assay: as above
[5] = target: T3, HSV-1 dUTPase (vdUTPase) (herpes simplex virus 1, strain F) (UniProt P10234); assay: proximity ligation; Duolink PLA in fixed Vero cells infected with MEF-iUL49 at an MOI of 10 for 12 h; primary antibodies to vdUTPase and Flag
T3 sequence: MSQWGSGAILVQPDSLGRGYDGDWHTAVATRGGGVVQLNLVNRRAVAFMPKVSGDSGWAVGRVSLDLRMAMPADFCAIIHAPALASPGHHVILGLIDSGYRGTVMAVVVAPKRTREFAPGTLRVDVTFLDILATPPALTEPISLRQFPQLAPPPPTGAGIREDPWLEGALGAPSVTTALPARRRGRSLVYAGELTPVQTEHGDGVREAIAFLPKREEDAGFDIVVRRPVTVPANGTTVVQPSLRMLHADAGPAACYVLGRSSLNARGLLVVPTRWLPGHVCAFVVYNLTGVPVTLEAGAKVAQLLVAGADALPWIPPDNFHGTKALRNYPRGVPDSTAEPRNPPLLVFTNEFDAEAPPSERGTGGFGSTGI

[6] = target: T4, vdUTPase tagged with Strep-tag (SE-vdUTPase) (herpes simplex virus 1, strain F) (UniProt P10234); assay: co-IP; Strep-tag affinity precipitation: lysates (0.5% NP-40 buffer, 150 mM NaCl) of Vero cells infected at an MOI of 10 for 12 h, Strep-Tactin sepharose beads, 4 °C, 1.5 h; immunoblot
T4 sequence: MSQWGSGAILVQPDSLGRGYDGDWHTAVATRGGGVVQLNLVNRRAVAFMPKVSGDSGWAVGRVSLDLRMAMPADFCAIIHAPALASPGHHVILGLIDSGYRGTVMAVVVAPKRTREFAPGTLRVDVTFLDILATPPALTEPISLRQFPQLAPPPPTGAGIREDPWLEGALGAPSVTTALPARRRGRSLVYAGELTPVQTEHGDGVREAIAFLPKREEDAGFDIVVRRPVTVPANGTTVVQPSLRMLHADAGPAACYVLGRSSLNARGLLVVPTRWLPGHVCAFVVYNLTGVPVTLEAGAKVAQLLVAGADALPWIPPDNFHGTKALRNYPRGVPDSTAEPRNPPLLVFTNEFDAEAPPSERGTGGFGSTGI

[7] = target: GST-piUL49 (herpes simplex virus 1, strain F); assay: pull-down; purified GST-piUL49 or GST-piUL49R83L immobilised on glutathione-sepharose resin, purified 6xHis-SUMO-vdUTPase or 6xHis-SUMO-vUNG in solution, 1 h at 4 °C, washed with 0.5% NP-40 buffer; immunoblot; both purified

SE-piUL49 (herpes simplex virus 1, strain F)
binding [1]: binds | binding [2]: no binding

Flag-piUL49 (herpes simplex virus 1, strain F)
binding [3]: binds | binding [4]: no binding

MEF-piUL49 (herpes simplex virus 1, strain F)
binding [5]: binds

piUL49 (product of the iUL49 CDS of HSV-1) (herpes simplex virus 1, strain F)
binding [6]: binds

B1: 6xHis-SUMO-vdUTPase (enzyme, UniProt P10234 1-371)
chain: MSQWGSGAILVQPDSLGRGYDGDWHTAVATRGGGVVQLNLVNRRAVAFMPKVSGDSGWAVGRVSLDLRMAMPADFCAIIHAPALASPGHHVILGLIDSGYRGTVMAVVVAPKRTREFAPGTLRVDVTFLDILATPPALTEPISLRQFPQLAPPPPTGAGIREDPWLEGALGAPSVTTALPARRRGRSLVYAGELTPVQTEHGDGVREAIAFLPKREEDAGFDIVVRRPVTVPANGTTVVQPSLRMLHADAGPAACYVLGRSSLNARGLLVVPTRWLPGHVCAFVVYNLTGVPVTLEAGAKVAQLLVAGADALPWIPPDNFHGTKALRNYPRGVPDSTAEPRNPPLLVFTNEFDAEAPPSERGTGGFGSTGI
binding [7]: binds
